# According to PubChem BioAssay AID330 (DTP/NCI, 2004):
# The list does not hold the whole screen: it is rich in T/C values a quarter to a half above the control, in often repeated tests (any T/C) and in doses without a T/C. Further doses and runs are listed elsewhere. T/C gives the treated animals as a percentage of the vehicle group. Some doses have a count of surviving animals in place of a T/C: the source files T/C as zero there, which appears to mark a toxic dose or a test without result, not a measured value. Some survivor counts are full or nearly so, which does not show that the dose was tolerated: survival well below the control is almost never listed, so the zero probably covers shortened survival too. Counts of survivors are from the toxicity check (mostly the fifth day) where no day follows; animals may have died later. Schedule codes are those of the source, taken here to give the interval after Q, in days (D) or hours (H), and the number of doses after X. Marks such as (2×) stand for listed records that agree. Some doses were run more than once; the values are given in rising order. For survival time, the PubChem record calls one and a half times the control and up active, and a quarter to a half above the control has no call in these data; cut-offs in other NCI protocols can differ. Some T/C values are followed by the survivors on the day toxicity was checked, most often the fifth; where none is given, no animal had died by that day.
# Tested on: P388 leukemia ip, CD2F1 mice, survival T/C
# Experiment: NCI In Vivo Anticancer Drug Screen. Data for tumor model P388 Leukemia (intraperitoneal) in CD2F1 (CDF1) mice
# Conditions: T/C endpoint: median survival time, higher T/C = longer survival
# [1] = dose: 50.0 mg/kg/injection, schedule: Q01DX009 (ip), vehicle: Klucel (hydroxypropylcellulose) (HPC)
# [2] = dose: 50.0 mg/kg/injection, schedule: Q01DX009 (ip), vehicle: saline with Tween-80
# [3] = dose: 100.0 mg/kg/injection, schedule: Q01DX009 (ip), vehicle: other
# [4] = dose: 100.0 mg/kg/injection, schedule: Q01DX009 (ip), vehicle: water
# [5] = dose: 200.0 mg/kg/injection, schedule: Q01DX009 (ip), vehicle: Klucel (hydroxypropylcellulose) (HPC)
# [6] = dose: 100.0 mg/kg/injection, schedule: Q01DX005 (ip), vehicle: Klucel (hydroxypropylcellulose) (HPC)
# [7] = dose: 200.0 mg/kg/injection, schedule: Q01DX005 (ip), vehicle: Klucel (hydroxypropylcellulose) (HPC)
# [8] = dose: 200.0 mg/kg/injection, schedule: Q01DX005 (ip), vehicle: saline with Tween-80
# [9] = dose: 240.0 mg/kg/injection, schedule: Q01DX005 (ip), vehicle: saline
# [10] = dose: 200.0 mg/kg/injection, schedule: Q01DX005 (ip), vehicle: saline
# [11] = dose: 50.0 mg/kg/injection, schedule: Q01DX005 (ip), vehicle: saline
smiles,measurement,setting,value
Cc1ccc(S(=O)(=O)N/N=C/C(=O)O)cc1,T/C,"dose: 6.25 mg/kg/injection, schedule: Q01DX009 (ip), vehicle: Klucel (hydroxypropylcellulose) (HPC)",126 % of control
same,T/C,"dose: 12.5 mg/kg/injection, schedule: Q01DX009 (ip), vehicle: distilled water + Tween-80","115, 122, 133, 137, 153 % of control"
same,T/C,"dose: 12.5 mg/kg/injection, schedule: Q01DX009 (ip), vehicle: other","117, 124, 128 (2×), 131, 132, 134, 136, 137, 138, 139 (2×), 147 % of control"
same,T/C,"dose: 12.5 mg/kg/injection, schedule: Q01DX009 (ip), vehicle: water","117, 125, 141 (2×), 145, 150 % of control"
same,T/C,"dose: 25.0 mg/kg/injection, schedule: Q01DX009 (ip), vehicle: Klucel (hydroxypropylcellulose) (HPC)","131, 133, 140 % of control"
same,T/C,"dose: 25.0 mg/kg/injection, schedule: Q01DX009 (ip), vehicle: distilled water + Tween-80","131, 133, 140, 142, 171 % of control"
same,T/C,"dose: 25.0 mg/kg/injection, schedule: Q01DX009 (ip), vehicle: other","135 (2×), 137 (2×), 138, 139, 141, 142, 146, 149, 151, 155, 163 % of control"
same,T/C,"dose: 25.0 mg/kg/injection, schedule: Q01DX009 (ip), vehicle: saline with Tween-80",129 % of control [5 of 6 alive]
same,T/C,"dose: 25.0 mg/kg/injection, schedule: Q01DX009 (ip), vehicle: water","137, 139, 150, 157, 166, 172 % of control"
same,T/C,[1],142 and 145 % of control
same,T/C,"dose: 50.0 mg/kg/injection, schedule: Q01DX009 (ip), vehicle: distilled water + Tween-80","130, 156, 158, 159, 192 % of control"
same,T/C,"dose: 50.0 mg/kg/injection, schedule: Q01DX009 (ip), vehicle: other","147, 152 (2×), 153, 157, 158, 159, 163, 171, 175, 179, 180 % of control (2×)"
same,T/C,[2],147 % of control
same,T/C,"dose: 50.0 mg/kg/injection, schedule: Q01DX009 (ip), vehicle: water","143, 145 [5 of 6 alive], 160 [5 of 6 alive], 179 (2×), 184 % of control"
same,T/C,"dose: 100.0 mg/kg/injection, schedule: Q01DX009 (ip), vehicle: distilled water + Tween-80","98, 104, 128, 153, 192 % of control"
same,T/C,[3],"88, 89, 111 [5 of 6 alive], 149, 209 % of control"
same,survivor count,[3],"4 of 6, 5 of 6, 6 of 6"
same,T/C,[4],"87, 130, 196, 198 % of control"
same,survivor count,[4],2 of 6 and 5 of 6
same,survivor count,[5],"3 of 6, 5 of 6, 6 of 6"
COc1cc(NS(C)(=O)=O)ccc1Nc1c2ccc(N(C)C)cc2nc2cc(N(C)C)ccc12,survivor count,"dose: 60.0 mg/kg/injection, schedule: Q01DX005 (ip), vehicle: Klucel (hydroxypropylcellulose) (HPC)",4 of 6
same,survivor count,"dose: 120.0 mg/kg/injection, schedule: Q01DX005 (ip), vehicle: Klucel (hydroxypropylcellulose) (HPC)",6 of 6
same,survivor count,"dose: 240.0 mg/kg/injection, schedule: Q01DX005 (ip), vehicle: Klucel (hydroxypropylcellulose) (HPC)",2 of 6
COc1ccc2c(c1)C(=O)C1(CC2)OC1c1ccncc1 (stereo not given),survivor count,[1],6 of 6
COc1cccc2c1C(=O)c1c(O)c3c(c(O)c1C2=O)C[C@@](O)(/C(C)=N/NC(=O)c1ccc(Cl)c(Cl)c1)C[C@@H]3OC1CC(N)C(O)C(C)O1 (stereo not given in full),T/C,"dose: 0.25 mg/kg/injection, schedule: Q01DX009 (ip), vehicle: water, evaluated on day 30",137 % of control
same,T/C,"dose: 0.25 mg/kg/injection, schedule: Q01DX009 (ip), vehicle: water, evaluated on day 45",132 % of control
same,T/C,"dose: 0.5 mg/kg/injection, schedule: Q01DX009 (ip), vehicle: water",138 % of control
same,T/C,"dose: 2.5 mg/kg/injection, schedule: Q01DX001 (ip), vehicle: water",138 % of control
same,T/C,"dose: 4.0 mg/kg/injection, schedule: Q01DX009 (ip), vehicle: water",132 % of control
same,survivor count,"dose: 8.0 mg/kg/injection, schedule: Q01DX009 (ip), vehicle: water",6 of 6 (2×)
same,survivor count,"dose: 16.0 mg/kg/injection, schedule: Q01DX009 (ip), vehicle: water",4 of 6
same,survivor count,"dose: 40.0 mg/kg/injection, schedule: Q01DX001 (ip), vehicle: water",6 of 6
same,survivor count,"dose: 80.0 mg/kg/injection, schedule: Q01DX001 (ip), vehicle: water",0 of 6
C[S+](C)c1ccc(Cl)cc1,survivor count,"dose: 50.0 mg/kg/injection, schedule: Q01DX009 (ip), vehicle: saline",4 of 6
same,survivor count,"dose: 100.0 mg/kg/injection, schedule: Q01DX009 (ip), vehicle: saline",0 of 6
same,survivor count,"dose: 200.0 mg/kg/injection, schedule: Q01DX009 (ip), vehicle: saline",0 of 6
CN(C)C(=O)n1cnc([N+](=O)[O-])c1,survivor count,"dose: 400.0 mg/kg/injection, schedule: Q01DX001 (ip), vehicle: saline with Tween-80",3 of 6
COc1ccc2c(c1)C=C([N+](=O)[O-])C(N1CCOCC1)O2 (stereo not given),survivor count,[6],2 of 6
same,survivor count,[7],0 of 6
C(#Cc1c2ccccc2c(C#Cc2ccccc2)c2c(-c3ccccc3)cccc12)c1ccccc1,survivor count,[8],5 of 5
Nc1ccc2nc3c(N)ccc(N)c3nc2c1,T/C,[9],137 % of control
COc1cccc(/C=N/NC(=O)CNC(=O)Nc2cccc([N+](=O)[O-])c2)c1OC,survivor count,"dose: 60.0 mg/kg/injection, schedule: Q01DX005 (ip), vehicle: saline with Tween-80",5 of 6
CCCCOC(=O)c1ccccc1OP(=O)(N(C)C)N(C)C,survivor count,[10],0 of 6
CCOC(=O)C[N+](C)(C)C(C#N)C(C)c1ccccc1 (stereo not given),survivor count,[9],0 of 6
S=C(Cl)N1CCN(C(=S)Cl)CC1,survivor count,"dose: 100.0 mg/kg/injection, schedule: Q01DX009 (ip), vehicle: Klucel (hydroxypropylcellulose) (HPC)",5 of 6
same,survivor count,[5],0 of 6
CCCOc1cc2c(cc1C(C)(C)c1ccccc1)OCO2,survivor count,[8],6 of 6
CCN(CCNc1ccc(C)c2sc3cc(Cl)ccc3c(=O)c12)CC(C)(C)O,survivor count,"dose: 100.0 mg/kg/injection, schedule: Q01DX005 (ip), vehicle: saline with Tween-80",5 of 5
COC(=O)[CH2][Sn]([CH3])([CH3])[CH2]C(=O)OC,T/C,"dose: 6.25 mg/kg/injection, schedule: Q01DX005 (ip), vehicle: saline",131 % of control
same,T/C,"dose: 12.5 mg/kg/injection, schedule: Q01DX005 (ip), vehicle: saline",129 % of control
same,T/C,"dose: 25.0 mg/kg/injection, schedule: Q01DX005 (ip), vehicle: saline",130 % of control
same,T/C,[11],138 % of control [5 of 6 alive]
same,survivor count,[11],2 of 6
same,survivor count,"dose: 100.0 mg/kg/injection, schedule: Q01DX005 (ip), vehicle: saline",0 of 6
same,survivor count,[10],0 of 6
CCOC(=O)C(=CNc1ccc2n[nH]nc2c1)C(=O)OCC,survivor count,[5],2 of 6
CSc1ncnc2c1c1c(N)ncnc1n2C1OC(CO)C(O)C1O (stereo not given),survivor count,"dose: 400.0 mg/kg/injection, schedule: Q01DX005 (ip), vehicle: other",0 of 3
CCC[n+]1noc(N)n1,survivor count,"dose: 200.0 mg/kg/injection, schedule: Q01DX009 (ip), vehicle: water",3 of 3
same,survivor count,"dose: 400.0 mg/kg/injection, schedule: Q01DX009 (ip), vehicle: water",3 of 3
COc1ccc(Cc2nncc3ccccc23)cc1OC,survivor count,[2],6 of 6
c1ccc2c(c1)-c1ccccc1C1NC21 (stereo not given),T/C,"dose: 50.0 mg/kg/injection, schedule: Q01DX001 (ip), vehicle: saline with Tween-80",130 [5 of 6 alive] and 137 % of control
same,survivor count,"dose: 100.0 mg/kg/injection, schedule: Q01DX001 (ip), vehicle: saline with Tween-80",0 of 6
Cc1cc(C(=O)Nc2ccc(NC3=NCCN3)cc2)c(C)cc1C(=O)Nc1ccc(NC2=NCCN2)cc1,T/C,"dose: 50.0 mg/kg/injection, schedule: Q01DX005 (ip), vehicle: Klucel (hydroxypropylcellulose) (HPC)",128 [5 of 6 alive] and 137 % of control
same,survivor count,[6],0 of 6
same,survivor count,[7],0 of 6
